Measurements published in publication PMC8565353.
These are yes or no findings as the source states them, for the method shown. Binding seen in cells or lysates may run through a third protein. These calls come from enrichment with a bait or labelling near it, and not all partners need be listed. For part of these data: No binding means not detected with the bait. For part of these data: Tags and fused reporters may be left off the sequences shown.

By UniProt entry, the sequences of proteins in these tests, tags left out.
UniProt Q6P6C2: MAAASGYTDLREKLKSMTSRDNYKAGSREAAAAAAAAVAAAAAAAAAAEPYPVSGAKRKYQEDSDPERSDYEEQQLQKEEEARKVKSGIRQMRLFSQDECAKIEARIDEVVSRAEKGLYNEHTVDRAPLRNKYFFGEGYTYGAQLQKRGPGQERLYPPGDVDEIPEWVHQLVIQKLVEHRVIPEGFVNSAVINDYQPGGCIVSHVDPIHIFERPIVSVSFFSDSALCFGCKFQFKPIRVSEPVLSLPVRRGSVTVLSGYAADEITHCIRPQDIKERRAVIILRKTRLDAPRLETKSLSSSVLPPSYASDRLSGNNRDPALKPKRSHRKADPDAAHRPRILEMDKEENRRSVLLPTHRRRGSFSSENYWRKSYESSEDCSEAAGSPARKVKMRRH

B1: LARP7 (protein, UniProt Q4G0J3 1-582)
chain: METESGNQEKVMEEESTEKKKEVEKKKRSRVKQVLADIAKQVDFWFGDANLHKDRFLREQIEKSRDGYVDISLLVSFNKMKKLTTDGKLIARALRSSAVVELDLEGTRIRRKKPLGERPKDEDERTVYVELLPKNVNHSWIERVFGKCGNVVYISIPHYKSTGDPKGFAFVEFETKEQAAKAIEFLNNPPEEAPRKPGIFPKTVKNKPIPALRVVEEKKKKKKKKGRMKKEDNIQAKEENMDTSNTSISKMKRSRPTSEGSDIESTEPQKQCSKKKKKRDRVEASSLPEVRTGKRKRSSSEDAESLAPRSKVKKIIQKDIIKEASEASKENRDIEISTEEEKDTGDLKDSSLLKTKRKHKKKHKERHKMGEEVIPLRVLSKSEWMDLKKEYLALQKASMASLKKTISQIKSESEMETDSGVPQNTGMKNEKTANREECRTQEKVNATGPQFVSGVIVKIISTEPLPGRKQVRDTLAAISEVLYVDLLEGDTECHARFKTPEDAQAVINAYTEINKKHCWKLEILSGDHEQRYWQKILVDRQAKLNQPREKKRGTEKLITKAEKIRLAKTQQASKHIRFSEYD
B2: MePCE (protein, UniProt Q7L2J0 1-689)
chain: MIEMAAEKEPFLVPAPPPPLKDESGGGGGPTVPPHQEAASGELRGGTERGPGRCAPSAGSPAAAVGRESPGAAATSSSGPQAQQHRGGGPQAQSHGEARLSDPPGRAAPPDVGEERRGGGGTELGPPAPPRPRNGYQPHRPPGGGGGKRRNSCNVGGGGGGFKHPAFKRRRRVNSDCDSVLPSNFLLGGNIFDPLNLNSLLDEEVSRTLNAETPKSSPLPAKGRDPVEILIPKDITDPLSLNTCTDEGHVVLASPLKTGRKRHRHRGQHHQQQQAAGGSESHPVPPTAPLTPLLHGEGASQQPRHRGQNRDAPQPYELNTAINCRDEVVSPLPSALQGPSGSLSAPPAASVISAPPSSSSRHRKRRRTSSKSEAGARGGGQGSKEKGRGSWGGRHHHHHPLPAAGFKKQQRKFQYGNYCKYYGYRNPSCEDGRLRVLKPEWFRGRDVLDLGCNVGHLTLSIACKWGPSRMVGLDIDSRLIHSARQNIRHYLSEELRLPPQTLEGDPGAEGEEGTTTVRKRSCFPASLTASRGPIAAPQVPLDGADTSVFPNNVVFVTGNYVLDRDDLVEAQTPEYDVVLCLSLTKWVHLNWGDEGLKRMFRRIYRHLRPGGILVLEPQPWSSYGKRKTLTETIYKNYYRIQLKPEQFSSYLTSPDVGFSSYELVATPHNTSKGFQRPVYLFHKARSPSH
B3: ADAT1 (enzyme, UniProt Q9BUB4 1-502)
chain: MWTADEIAQLCYEHYGIRLPKKGKPEPNHEWTLLAAVVKIQSPADKACDTPDKPVQVTKEVVSMGTGTKCIGQSKMRKNGDILNDSHAEVIARRSFQRYLLHQLQLAATLKEDSIFVPGTQKGVWKLRRDLIFVFFSSHTPCGDASIIPMLEFEDQPCCPVFRNWAHNSSVEASSNLEAPGNERKCEDPDSPVTKKMRLEPGTAAREVTNGAAHHQSFGKQKSGPISPGIHSCDLTVEGLATVTRIAPGSAKVIDVYRTGAKCVPGEAGDSGKPGAAFHQVGLLRVKPGRGDRTRSMSCSDKMARWNVLGCQGALLMHLLEEPIYLSAVVIGKCPYSQEAMQRALIGRCQNVSALPKGFGVQELKILQSDLLFEQSRSAVQAKRADSPGRLVPCGAAISWSAVPEQPLDVTANGFPQGTTKKTIGSLQARSQISKVELFRSFQKLLSRIARDKWPHSLRVQKLDTYQEYKEAASSYQEAWSTLRKQVFGSWIRNPPDYHQFK
B4: SNRNP27 (protein, UniProt Q8WVK2 1-155)
chain: MGRSRSRSPRRERRRSRSTSRERERRRRERSRSRERDRRRSRSRSPHRRRSRSPRRHRSTSPSPSRLKERRDEEKKETKETKSKERQITEEDLEGKTEEEIEMMKLMGFASFDSTKGKKVDGSVNAYAINVSQKRKYRQYMNRKGGFNRPLDFIA
B5: DDX47 (protein, UniProt Q9H0S4 1-455)
chain: MAAPEEHDSPTEASQPIVEEEETKTFKDLGVTDVLCEACDQLGWTKPTKIQIEAIPLALQGRDIIGLAETGSGKTGAFALPILNALLETPQRLFALVLTPTRELAFQISEQFEALGSSIGVQSAVIVGGIDSMSQSLALAKKPHIIIATPGRLIDHLENTKGFNLRALKYLVMDEADRILNMDFETEVDKILKVIPRDRKTFLFSATMTKKVQKLQRAALKNPVKCAVSSKYQTVEKLQQYYIFIPSKFKDTYLVYILNELAGNSFMIFCSTCNNTQRTALLLRNLGFTAIPLHGQMSQSKRLGSLNKFKAKARSILLATDVASRGLDIPHVDVVVNFDIPTHSKDYIHRVGRTARAGRSGKAITFVTQYDVELFQRIEHLIGKKLPGFPTQDDEVMMLTERVAEAQRFARMELREHGEKKKRSREDAGDNDDTEGAIGVRNKVAGGKMKKRKGR
B6: Tyrosyl DNA phosphodiesterase 2 (TDP2) (enzyme, UniProt O95551 1-362)
chain: MELGSCLEGGREAAEEEGEPEVKKRRLLCVEFASVASCDAAVAQCFLAENDWEMERALNSYFEPPVEESALERRPETISEPKTYVDLTNEETTDSTTSKISPSEDTQQENGSMFSLITWNIDGLDLNNLSERARGVCSYLALYSPDVIFLQEVIPPYYSYLKKRSSNYEIITGHEEGYFTAIMLKKSRVKLKSQEIIPFPSTKMMRNLLCVHVNVSGNELCLMTSHLESTRGHAAERMNQLKMVLKKMQEAPESATVIFAGDTNLRDREVTRCGGLPNNIVDVWEFLGKPKHCQYTWDTQMNSNLGITAACKLRFDRIFFRAAAEEGHIIPRSLDLLGLEKLDCGRFPSDHWGLLCNLDIIL
B7: SAP18 (protein, UniProt O00422 1-153)
chain: MAVESRVTQEEIKKEPEKPIDREKTCPLLLRVFTTNNGRHHRMDEFSRGNVPSSELQIYTWMDATLKELTSLVKEVYPEARKKGTHFNFAIVFTDVKRPGYRVKEIGSTMSGRKGTDDSMTLQSQKFQIGDYLDIAITPPNRAPPPSGRMRPY
B8: RNPS1 (protein, UniProt Q15287 1-305)
chain: MDLSGVKKKSLLGVKENNKKSSTRAPSPTKRKDRSDEKSKDRSKDKGATKESSEKDRGRDKTRKRRSASSGSSSTRSRSSSTSSSGSSTSTGSSSGSSSSSASSRSGSSSTSRSSSSSSSSGSPSPSRRRHDNRRRSRSKSKPPKRDEKERKRRSPSPKPTKVHIGRLTRNVTKDHIMEIFSTYGKIKMIDMPVERMHPHLSKGYAYVEFENPDEAEKALKHMDGGQIDGQEITATAVLAPWPRPPPRRFSPPRRMLPPPPMWRRSPPRMRRRSRSPRRRSPVRRRSRSPGRRRHRSRSSSNSSR
B9: SARNP (protein, UniProt P82979 1-210)
chain: MATETVELHKLKLAELKQECLARGLETKGIKQDLIHRLQAYLEEHAEEEANEEDVLGDETEEEETKPIELPVKEEEPPEKTVDVAAEKKVVKITSEIPQTERMQKRAERFNVPVSLESKKAARAARFGISSVPTKGLSSDNKPMVNLDKLKERAQRFGLNVSSISRKSEDDEKLKKRKERFGIVTSSAGTGTTEDTEAKKRKRAERFGIA
B10: POLDIP3 (protein, UniProt Q9BY77 1-421)
chain: MADISLDELIRKRGAAAKGRLNARPGVGGVRSRVGIQQGLLSQSTRTATFQQRFDARQKIGLSDARLKLGVKDAREKLLQKDARFRIKGKVQDAREMLNSRKQQTTVPQKPRQVADAREKISLKRSSPAAFINPPIGTVTPALKLTKTIQVPQQKAMAPLHPHPAGMRINVVNNHQAKQNLYDLDEDDDGIASVPTKQMKFAASGGFLHHMAGLSSSKLSMSKALPLTKVVQNDAYTAPALPSSIRTKALTNMSRTLVNKEEPPKELPAAEPVLSPLEGTKMTVNNLHPRVTEEDIVELFCVCGALKRARLVHPGVAEVVFVKKDDAITAYKKYNNRCLDGQPMKCNLHMNGNVITSDQPILLRLSDSPSMKKESELPRRVNSASSSNPPAEVDPDTILKALFKSSGASVTTQPTEFKIKL
B11: THO subunit THOC3 (protein, UniProt Q96J01 1-351)
chain: MAVPAAAMGPSALGQSGPGSMAPWCSVSSGPSRYVLGMQELFRGHSKTREFLAHSAKVHSVAWSCDGRRLASGSFDKTASVFLLEKDRLVKENNYRGHGDSVDQLCWHPSNPDLFVTASGDKTIRIWDVRTTKCIATVNTKGENINICWSPDGQTIAVGNKDDVVTFIDAKTHRSKAEEQFKFEVNEISWNNDNNMFFLTNGNGCINILSYPELKPVQSINAHPSNCICIKFDPMGKYFATGSADALVSLWDVDELVCVRCFSRLDWPVRTLSFSHDGKMLASASEDHFIDIAEVETGDKLWEVQCESPTFTVAWHPKRPLLAFACDDKDGKYDSSREAGTVKLFGLPNDS
B12: tRNA m^1G methyltransferase TRMT10A (enzyme, UniProt Q8TBZ6 1-339)
chain: MSSEMLPAFIETSNVDKKQGINEDQEESQKPRLGEGCEPISKRQMKKLIKQKQWEEQRELRKQKRKEKRKRKKLERQCQMEPNSDGHDRKRVRRDVVHSTLRLIIDCSFDHLMVLKDIKKLHKQIQRCYAENRRALHPVQFYLTSHGGQLKKNMDENDKGWVNWKDIHIKPEHYSELIKKEDLIYLTSDSPNILKELDESKAYVIGGLVDHNHHKGLTYKQASDYGINHAQLPLGNFVKMNSRKVLAVNHVFEIILEYLETRDWQEAFFTILPQRKGAVPTDKACESASHDNQSVRMEEGGSDSDSSEEEYSRNELDSPHEEKQDKENHTESTVNSLPH

Columns and labels:
Assay in all cases: proximity labelling; BioID: BirA*-fused bait induced with 200 ng/ml dox in stable 293T cells, 50 μM biotin for 24 h, streptavidin bead purification of biotinylated proteins, LC-MS/MS; hits filtered by Limma (>4-fold, adjusted P < 0.01) and SAINT (score >0.74) against BirA* and NLS-BirA* controls
[1] = molecular target: T1, METTL16, C-terminal BirA* fusion (human) (UniProt Q86W50)
T1 sequence: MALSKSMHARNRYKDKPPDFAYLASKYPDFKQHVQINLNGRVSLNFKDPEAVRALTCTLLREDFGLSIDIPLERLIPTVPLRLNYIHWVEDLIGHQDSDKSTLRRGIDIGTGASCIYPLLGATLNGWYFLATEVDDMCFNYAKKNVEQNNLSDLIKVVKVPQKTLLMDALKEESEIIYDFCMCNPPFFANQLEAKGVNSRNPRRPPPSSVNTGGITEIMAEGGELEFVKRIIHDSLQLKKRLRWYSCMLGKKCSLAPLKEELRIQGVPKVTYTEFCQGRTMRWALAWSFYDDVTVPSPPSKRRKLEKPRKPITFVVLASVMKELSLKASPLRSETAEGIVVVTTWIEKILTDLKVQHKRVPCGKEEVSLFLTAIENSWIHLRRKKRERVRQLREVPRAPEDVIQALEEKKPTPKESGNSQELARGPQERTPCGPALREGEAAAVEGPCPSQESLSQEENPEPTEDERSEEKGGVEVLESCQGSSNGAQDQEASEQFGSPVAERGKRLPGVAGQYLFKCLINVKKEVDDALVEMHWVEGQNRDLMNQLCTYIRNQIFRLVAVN

[2] = molecular target: FTO, N-terminal BirA* fusion (human) (UniProt Q9C0B1)
[3] = molecular target: ALKBH5, BirA* fusion (human) (UniProt Q6P6C2)

Binder | binding [1] | binding [3] | also measured
B1 | binds |  | 
B2 | binds |  | 
B3 | binds |  | 
B4 | binds |  | 
B5 | binds |  | 
B6 |  |  | binding [2]: binds
B7 |  | binds | 
B8 |  | binds | 
B9 |  | binds | 
B10 |  | binds | 
B11 |  | binds | 
B12 |  |  | binding [2]: no binding
